The record followed here is the supplement of paper PMC10849652.

Sequences of proteins named here, by UniProt entry; tags and fusion partners are left off. A change or cut given only in a name is not applied to a line headed by its entry.
UniProt Q9NQG7: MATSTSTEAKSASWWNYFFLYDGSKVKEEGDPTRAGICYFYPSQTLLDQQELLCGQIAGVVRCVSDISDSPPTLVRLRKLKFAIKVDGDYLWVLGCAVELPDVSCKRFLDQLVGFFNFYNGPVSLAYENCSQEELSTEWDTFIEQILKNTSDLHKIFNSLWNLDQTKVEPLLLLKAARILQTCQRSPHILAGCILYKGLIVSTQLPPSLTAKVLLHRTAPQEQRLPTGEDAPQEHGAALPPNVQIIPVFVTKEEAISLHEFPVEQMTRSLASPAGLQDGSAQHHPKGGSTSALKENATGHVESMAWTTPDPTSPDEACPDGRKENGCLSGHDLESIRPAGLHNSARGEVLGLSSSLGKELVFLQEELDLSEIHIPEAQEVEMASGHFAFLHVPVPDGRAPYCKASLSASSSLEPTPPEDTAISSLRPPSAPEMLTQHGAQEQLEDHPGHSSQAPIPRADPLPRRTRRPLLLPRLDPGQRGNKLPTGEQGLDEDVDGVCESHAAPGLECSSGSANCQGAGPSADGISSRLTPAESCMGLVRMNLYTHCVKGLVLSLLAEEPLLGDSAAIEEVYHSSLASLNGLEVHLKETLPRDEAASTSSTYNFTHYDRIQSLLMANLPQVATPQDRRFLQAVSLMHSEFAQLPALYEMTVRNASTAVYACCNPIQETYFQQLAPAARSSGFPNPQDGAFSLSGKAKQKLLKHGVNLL
UniProt P28356, whole entry, looked up: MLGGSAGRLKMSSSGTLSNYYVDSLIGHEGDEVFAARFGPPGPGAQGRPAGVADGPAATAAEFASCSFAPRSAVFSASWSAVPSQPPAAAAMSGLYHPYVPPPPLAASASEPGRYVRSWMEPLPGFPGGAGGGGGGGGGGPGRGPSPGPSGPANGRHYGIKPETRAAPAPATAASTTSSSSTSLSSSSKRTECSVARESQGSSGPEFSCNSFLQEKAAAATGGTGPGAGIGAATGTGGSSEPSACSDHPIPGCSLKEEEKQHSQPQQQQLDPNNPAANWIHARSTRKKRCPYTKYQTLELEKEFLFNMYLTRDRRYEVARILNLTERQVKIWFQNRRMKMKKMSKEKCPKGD
UniProt Q96EW2: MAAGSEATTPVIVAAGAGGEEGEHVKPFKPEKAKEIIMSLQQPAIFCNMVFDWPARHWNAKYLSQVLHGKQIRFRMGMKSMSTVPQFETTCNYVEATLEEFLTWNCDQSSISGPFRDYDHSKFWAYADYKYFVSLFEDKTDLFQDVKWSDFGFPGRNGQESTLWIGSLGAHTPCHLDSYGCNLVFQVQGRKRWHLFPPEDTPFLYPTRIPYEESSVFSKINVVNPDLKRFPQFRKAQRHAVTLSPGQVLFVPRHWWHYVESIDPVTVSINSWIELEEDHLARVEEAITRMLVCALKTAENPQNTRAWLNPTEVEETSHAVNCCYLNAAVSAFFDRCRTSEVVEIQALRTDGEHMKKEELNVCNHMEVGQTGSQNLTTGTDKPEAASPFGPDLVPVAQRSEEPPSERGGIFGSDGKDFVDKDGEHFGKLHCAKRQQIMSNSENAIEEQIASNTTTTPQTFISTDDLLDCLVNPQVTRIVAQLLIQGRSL
UniProt Q9BW72: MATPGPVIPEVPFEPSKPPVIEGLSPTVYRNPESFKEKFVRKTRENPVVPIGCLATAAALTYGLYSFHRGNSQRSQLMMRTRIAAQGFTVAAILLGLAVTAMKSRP
UniProt Q9NSC5: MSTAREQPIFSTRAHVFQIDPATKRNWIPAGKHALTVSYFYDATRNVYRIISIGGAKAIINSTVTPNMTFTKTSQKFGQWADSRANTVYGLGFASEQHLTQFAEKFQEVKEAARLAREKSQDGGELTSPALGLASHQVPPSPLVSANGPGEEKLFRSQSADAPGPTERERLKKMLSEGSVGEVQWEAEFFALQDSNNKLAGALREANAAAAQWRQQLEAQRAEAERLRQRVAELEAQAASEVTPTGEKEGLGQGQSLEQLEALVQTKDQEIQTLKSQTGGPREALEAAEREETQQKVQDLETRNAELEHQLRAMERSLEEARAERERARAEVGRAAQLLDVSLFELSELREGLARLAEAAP
UniProt P41134: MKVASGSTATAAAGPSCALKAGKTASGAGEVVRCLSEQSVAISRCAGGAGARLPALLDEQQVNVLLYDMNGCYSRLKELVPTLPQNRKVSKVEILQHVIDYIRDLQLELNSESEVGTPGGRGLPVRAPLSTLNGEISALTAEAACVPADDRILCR
UniProt P50135: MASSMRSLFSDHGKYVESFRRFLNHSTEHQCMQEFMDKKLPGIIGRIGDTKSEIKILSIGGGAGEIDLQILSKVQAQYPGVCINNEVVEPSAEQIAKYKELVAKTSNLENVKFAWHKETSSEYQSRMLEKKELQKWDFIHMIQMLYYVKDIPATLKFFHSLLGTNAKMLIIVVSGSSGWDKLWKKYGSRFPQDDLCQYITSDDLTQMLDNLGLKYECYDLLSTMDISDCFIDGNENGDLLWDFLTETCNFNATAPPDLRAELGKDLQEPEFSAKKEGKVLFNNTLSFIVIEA
UniProt P30939: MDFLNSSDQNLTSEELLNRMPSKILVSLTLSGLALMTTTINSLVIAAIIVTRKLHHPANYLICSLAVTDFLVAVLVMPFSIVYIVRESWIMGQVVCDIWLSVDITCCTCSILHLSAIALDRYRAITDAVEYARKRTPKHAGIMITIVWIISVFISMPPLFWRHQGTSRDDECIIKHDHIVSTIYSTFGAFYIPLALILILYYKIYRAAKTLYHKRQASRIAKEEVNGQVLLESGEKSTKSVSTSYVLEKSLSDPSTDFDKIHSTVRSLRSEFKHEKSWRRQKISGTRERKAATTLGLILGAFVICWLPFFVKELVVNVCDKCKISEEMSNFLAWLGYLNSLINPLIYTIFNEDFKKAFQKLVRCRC
UniProt Q9P2D0: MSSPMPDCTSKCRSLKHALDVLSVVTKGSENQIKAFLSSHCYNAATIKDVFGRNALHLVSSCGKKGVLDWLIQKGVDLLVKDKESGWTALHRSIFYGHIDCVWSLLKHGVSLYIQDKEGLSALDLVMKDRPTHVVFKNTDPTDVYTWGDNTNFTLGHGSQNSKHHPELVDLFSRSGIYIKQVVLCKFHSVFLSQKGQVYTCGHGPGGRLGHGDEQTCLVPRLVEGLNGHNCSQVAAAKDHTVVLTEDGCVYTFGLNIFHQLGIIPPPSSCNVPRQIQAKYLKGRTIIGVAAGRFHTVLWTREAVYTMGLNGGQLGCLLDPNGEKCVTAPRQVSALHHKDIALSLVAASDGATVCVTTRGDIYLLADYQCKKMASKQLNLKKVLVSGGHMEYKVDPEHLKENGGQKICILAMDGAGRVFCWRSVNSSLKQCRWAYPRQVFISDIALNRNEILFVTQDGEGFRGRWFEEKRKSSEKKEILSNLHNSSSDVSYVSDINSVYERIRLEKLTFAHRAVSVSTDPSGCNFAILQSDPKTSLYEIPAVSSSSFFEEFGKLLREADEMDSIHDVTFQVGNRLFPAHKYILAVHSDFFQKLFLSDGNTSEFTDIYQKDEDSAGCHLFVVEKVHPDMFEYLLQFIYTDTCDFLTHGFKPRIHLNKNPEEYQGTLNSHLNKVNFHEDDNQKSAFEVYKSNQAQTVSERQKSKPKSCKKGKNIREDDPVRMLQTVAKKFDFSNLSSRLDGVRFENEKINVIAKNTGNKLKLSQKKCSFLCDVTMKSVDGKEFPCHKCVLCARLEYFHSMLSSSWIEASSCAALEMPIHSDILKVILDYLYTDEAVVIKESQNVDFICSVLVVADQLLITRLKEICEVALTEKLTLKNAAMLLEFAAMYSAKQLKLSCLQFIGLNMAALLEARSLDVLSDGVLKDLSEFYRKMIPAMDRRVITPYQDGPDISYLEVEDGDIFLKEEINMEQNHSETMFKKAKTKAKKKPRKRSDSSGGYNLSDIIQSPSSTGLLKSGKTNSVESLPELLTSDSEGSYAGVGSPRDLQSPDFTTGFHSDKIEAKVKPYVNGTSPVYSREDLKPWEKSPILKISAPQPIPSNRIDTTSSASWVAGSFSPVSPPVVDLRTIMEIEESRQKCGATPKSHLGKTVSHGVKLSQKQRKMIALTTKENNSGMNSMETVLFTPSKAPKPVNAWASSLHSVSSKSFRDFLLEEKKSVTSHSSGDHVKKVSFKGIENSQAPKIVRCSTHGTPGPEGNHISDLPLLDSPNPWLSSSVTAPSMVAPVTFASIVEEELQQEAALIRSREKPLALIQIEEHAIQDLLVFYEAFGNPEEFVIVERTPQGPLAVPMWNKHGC
UniProt H0YH80: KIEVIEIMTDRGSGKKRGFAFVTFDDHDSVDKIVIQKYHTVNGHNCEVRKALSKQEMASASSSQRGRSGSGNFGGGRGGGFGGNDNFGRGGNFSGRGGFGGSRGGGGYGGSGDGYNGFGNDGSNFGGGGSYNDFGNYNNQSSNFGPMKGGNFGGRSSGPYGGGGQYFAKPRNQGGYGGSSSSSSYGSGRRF
UniProt P13747, whole entry, looked up: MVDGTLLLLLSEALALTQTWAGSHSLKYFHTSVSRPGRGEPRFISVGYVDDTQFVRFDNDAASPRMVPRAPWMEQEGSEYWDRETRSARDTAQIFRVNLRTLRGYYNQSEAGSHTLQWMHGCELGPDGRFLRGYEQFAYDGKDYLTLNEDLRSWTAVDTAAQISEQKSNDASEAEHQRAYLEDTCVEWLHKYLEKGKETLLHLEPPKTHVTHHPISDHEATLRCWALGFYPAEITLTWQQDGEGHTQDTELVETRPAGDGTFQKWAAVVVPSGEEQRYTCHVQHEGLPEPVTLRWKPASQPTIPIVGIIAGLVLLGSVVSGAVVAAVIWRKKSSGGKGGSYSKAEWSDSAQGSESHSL
UniProt Q9NSB8: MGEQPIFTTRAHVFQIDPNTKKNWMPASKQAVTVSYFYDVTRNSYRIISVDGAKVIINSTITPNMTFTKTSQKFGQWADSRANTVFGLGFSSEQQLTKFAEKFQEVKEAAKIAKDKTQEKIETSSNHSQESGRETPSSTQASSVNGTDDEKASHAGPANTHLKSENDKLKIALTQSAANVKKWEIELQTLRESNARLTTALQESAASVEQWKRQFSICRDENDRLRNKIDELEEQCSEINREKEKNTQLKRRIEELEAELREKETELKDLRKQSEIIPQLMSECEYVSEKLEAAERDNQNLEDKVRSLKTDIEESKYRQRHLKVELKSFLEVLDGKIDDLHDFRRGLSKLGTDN
UniProt Q96ED9: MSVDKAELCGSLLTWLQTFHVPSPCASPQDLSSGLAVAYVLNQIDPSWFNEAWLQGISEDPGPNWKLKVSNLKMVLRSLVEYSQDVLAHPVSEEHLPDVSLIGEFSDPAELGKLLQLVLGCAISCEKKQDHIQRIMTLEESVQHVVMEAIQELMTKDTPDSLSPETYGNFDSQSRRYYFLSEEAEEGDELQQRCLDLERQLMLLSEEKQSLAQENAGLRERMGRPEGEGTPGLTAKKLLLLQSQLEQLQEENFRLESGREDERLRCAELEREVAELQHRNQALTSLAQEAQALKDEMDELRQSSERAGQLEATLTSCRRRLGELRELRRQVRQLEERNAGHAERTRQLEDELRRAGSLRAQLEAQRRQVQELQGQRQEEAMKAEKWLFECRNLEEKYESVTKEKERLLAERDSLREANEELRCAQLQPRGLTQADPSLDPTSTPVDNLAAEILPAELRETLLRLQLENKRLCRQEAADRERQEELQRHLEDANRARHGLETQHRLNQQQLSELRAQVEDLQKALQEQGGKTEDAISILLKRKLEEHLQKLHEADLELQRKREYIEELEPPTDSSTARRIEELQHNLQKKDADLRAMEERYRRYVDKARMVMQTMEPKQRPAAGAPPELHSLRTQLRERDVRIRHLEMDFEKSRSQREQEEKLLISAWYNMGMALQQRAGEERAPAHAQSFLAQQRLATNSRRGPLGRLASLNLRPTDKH
UniProt Q9NWY4: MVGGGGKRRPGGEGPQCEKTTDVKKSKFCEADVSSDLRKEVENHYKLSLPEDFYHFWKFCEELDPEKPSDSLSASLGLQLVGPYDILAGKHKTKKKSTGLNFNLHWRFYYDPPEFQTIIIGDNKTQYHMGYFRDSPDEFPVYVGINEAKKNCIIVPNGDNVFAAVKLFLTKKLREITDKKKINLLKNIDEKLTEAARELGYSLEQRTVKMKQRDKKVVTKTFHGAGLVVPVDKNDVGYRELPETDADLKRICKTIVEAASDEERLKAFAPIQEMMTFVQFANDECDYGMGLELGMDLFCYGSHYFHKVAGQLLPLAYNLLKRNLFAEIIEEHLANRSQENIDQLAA
UniProt Q9NZL4: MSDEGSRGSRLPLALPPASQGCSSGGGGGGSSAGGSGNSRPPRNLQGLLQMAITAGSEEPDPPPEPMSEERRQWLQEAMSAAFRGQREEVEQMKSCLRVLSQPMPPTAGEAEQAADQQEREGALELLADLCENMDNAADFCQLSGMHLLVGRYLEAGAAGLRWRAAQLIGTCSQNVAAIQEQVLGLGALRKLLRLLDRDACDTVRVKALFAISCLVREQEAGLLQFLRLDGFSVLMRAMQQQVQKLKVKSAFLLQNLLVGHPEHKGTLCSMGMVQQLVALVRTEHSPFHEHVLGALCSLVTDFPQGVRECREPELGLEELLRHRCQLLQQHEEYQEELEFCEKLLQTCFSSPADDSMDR

This is one part of the list.

Compound in one assay: C#Cc1cccc(Nc2ncnc3cc(OCCOC)c(OCCOC)cc23)c1 [erlotinib]
In words: log2 fold change, soluble protein after heating vs DMSO (PISA); higher = thermal stabilisation; K562 cells, 10 uM, 30 min; active = over 0.2 and 3.5 SD of the protein, either way, in both replicates (recomputed). An outline of the steps: (§1)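 Soluble protein was defined as the supernatant after 21,000xg for 90 min. It came from K562 cells at 2×10^6 cells/mL given 10 μM compound for 30 min, heated in aliquots for 3 min across 48°C-58°C, pooled, and extracted in PBS with 0.5% NP-40 at 4°C, and was quantified by TMTpro 16plex LC-MS/MS with equalised channel sums. Thermal stability against control samples, from duplicates, is reported as log2 fold change.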
As for HPS4 isoform 4 (UniProt Q9NQG7), the log2 fold change is inactive: 0.116. On to HOXD9 (UniProt P28356), for which the log2 fold change is inactive: -0.201. In the case of HUWE1, A0A087X1S3, the log2 fold change is inactive: -0.08. On to HNRNPUL1 (UniProt M0R247), for which the log2 fold change was inactive: -0.032. As to HSPBAP1 (UniProt Q96EW2), the log2 fold change is inactive: -0.016. Take HIGD2A (UniProt Q9BW72): the log2 fold change is inactive: -0.28.

For the target HNRNPD (UniProt D6RF44), the log2 fold change was inactive: -0.16.

With ICOSLG isoform 2 (UniProt O75144), the log2 fold change is inactive: -0.256. The same measure, in the same setting: for HOMER3 (UniProt Q9NSC5) the value was inactive: 0.012. As for HUWE1 isoform 2 (UniProt Q7Z6Z7), the log2 fold change is inactive: -0.205. On to ID1 (UniProt P41134), for which the log2 fold change was inactive: -0.255. Take HNRNPK isoform 3 (UniProt P61978): the log2 fold change was inactive: 0.101. As to HNMT (UniProt P50135), the log2 fold change was inactive: 0.283. For the target HTR1F (UniProt P30939), the log2 fold change was inactive: -0.015.

Compound in the next assay: C/C(=N\NC(=O)C1=CC(=CC=C1)S(=O)(=O)N2CCOCC2)/C3=C(C=CC(=C3)Cl)O
The assay is described as above. A digest of the protocol: as §1
IBTK (UniProt Q9P2D0): the log2 fold change is inactive: 0.019. Consider HOXD9 (UniProt P28356), for which the log2 fold change was inactive: 0.019. For HOOK1 (UniProt Q9UJC3), the log2 fold change was inactive: -0.145.

For HNRNPUL1 (UniProt M0R247), the log2 fold change was inactive: -0.317. Turning to HSPBAP1 (UniProt Q96EW2), the log2 fold change was inactive: -0.197.

With HM13 (UniProt Q8TCT9), the log2 fold change is inactive: -0.016. As for HUWE1 isoform 2 (UniProt Q7Z6Z7), the log2 fold change is inactive: -0.062. Take HNRNPA1 (UniProt H0YH80): the log2 fold change is inactive: -0.126. Regarding HLA-E (UniProt P13747), the log2 fold change was inactive: 0.088. Turning to HOMER2 (UniProt Q9NSB8), the log2 fold change is inactive: 0.002.

For the target HTR1F (UniProt P30939), the log2 fold change is inactive: -0.069.

Compound in the next assay: C1=CC(=C(C=C1Cl)C2=NC3=NC=CN=C3C(=N2)NC4=CC=NC=C4)F
The description is as above. An outline of the steps:
as §1
Regarding HMGXB4 (UniProt Q9UGU5), the log2 fold change was inactive: -0.32. Turning to IBTK (UniProt Q9P2D0), the log2 fold change is inactive: -0.08. As for HOOK2 (UniProt Q96ED9), the log2 fold change was inactive: 0.134. For the target HOOK1 (UniProt Q9UJC3), the log2 fold change was inactive: 0.02. Take HUWE1, A0A087X1S3: the log2 fold change was inactive: 0.022. The same measure, in the same setting: to ICE1 (UniProt Q9Y2F5) belongs inactive: 0.135. With HNRNPR (UniProt O43390), the log2 fold change was inactive: -0.304.

Consider HIGD2A (UniProt Q9BW72), for which the log2 fold change was inactive: -0.143.

As to HOXB4 (UniProt P17483), the log2 fold change was inactive: -0.018. Take HPF1 (UniProt Q9NWY4): the log2 fold change is inactive: 0.084. HM13 (UniProt Q8TCT9): the log2 fold change is inactive: 0.023.

Turning to HNRNPA1 (UniProt H0YH80), the log2 fold change is inactive: -0.564. On the same count and under the same terms, to ID1 (UniProt P41134) belongs inactive: -0.043. On to HLA-E (UniProt P13747), for which the log2 fold change is inactive: 0.112.

As to HNRNPK isoform 3 (UniProt P61978), the log2 fold change was inactive: -0.102.

As to HOMER2 (UniProt Q9NSB8), the log2 fold change is inactive: 0.012. In the case of HSPBP1 (UniProt Q9NZL4), the log2 fold change is inactive: 0.131.
